PubChem BioAssay AID1259254 | NCATS, 2017
The deposit covers about 59,000 reagents; below is a random part of them. About 1,550 of all reagents (2.6%) count as active. 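G2 share is only a proxy for re-replication; each gene was hit by three separate siRNAs, and active genes were retested.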 Raw values are not corrected between plates. Unmarked entries are inactive. Not stated in the record: the amount of reagent.

Purpose: 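Genome-wide screen for genes that prevent DNA re-replication in cancer cells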 (primary screen)
Cell system: human HCT116 colorectal cancer cells
Reagent: single siRNA against human genes
Time to read-out: 3 days
Measured: 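Imaged Hoechst DNA stain sorts each cell into a cycle phase by DNA amount; per plate, G2 fraction set to 0% for non-targeting and 100% for GMNN siRNA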
Direction: G2 robust z-score and G2 cells, % of GMNN control: higher = more G2 cells, more excess DNA replication; raw share of cells in G2: higher = larger share of cells with G2 DNA content
Rule for the call: 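Active siRNAs have a G2 robust z of 5 or more median absolute deviations over the median, which in these data means about 38% or higher of GMNN control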

gene,PubChem SID,G2 robust z-score,"G2 cells, % of GMNN control",raw share of cells in G2 (%)
LRTM2,SID160771119,1.43,13.1,11.5
LRTM2,SID160771120,-0.139,1.99,5.74
LRTM2,SID160771121,-0.306,0.815,4.58
TEPSIN,SID160758391,-0.196,1.59,4.36
TEPSIN,SID160758392,-0.296,0.887,3.19
TEPSIN,SID160758393,-0.641,-1.55,2.53
BORCS8,SID160727294,-0.482,-0.422,3.93
BORCS8,SID160727296,-1.2,-5.44,1.38
BORCS8,SID160734678,0.564,6.94,5.71
CKAP5,SID160723104,4.76,36.5,15.6
CKAP5,SID160723105,1.05,10.4,8.96
CKAP5,SID160723106,1.34,12.4,9.9
ANKDD1A,SID160733132,0.787,8.5,7.61
ANKDD1A,SID160765047,-0.399,0.161,4.04
ANKDD1A,SID160765048,0.63,7.4,6.5
CREBBP,SID160747990,-1.01,-4.15,2.67
CREBBP,SID160748000,1,10,8.65
CREBBP,SID160748011,-0.684,-1.84,4.3
CHST4,SID160726387,0.382,5.66,5.67
CHST4,SID160726393,1.91,16.4,12.8
CHST4,SID160726400,0.1,3.67,7.93
CCDC89,SID160761529,2.67,21.8,11.5
CCDC89,SID160761530,0.787,8.5,6.04
CCDC89,SID160761533,-1.17,-5.26,1.52
MMP3,SID160777334,1.87,16.1,11.2
MMP3,SID160777335,-0.787,-2.57,4
MMP3,SID160777336,-0.0619,2.53,4.85
TRANK1,SID160723333,0.345,5.4,7.77
TRANK1,SID160723334,-0.09,2.33,4.92
TRANK1,SID160723335,-0.109,2.2,4.21
SSNA1,SID160724182,-0.669,-1.74,4.36
SSNA1,SID160724183,0.536,6.74,6.57
SSNA1,SID160735148,-1.03,-4.25,1.85
CHAMP1,SID160762943,6.14 (active),46.2,20.5
CHAMP1,SID160762944,-0.898,-3.35,1.75
CHAMP1,SID160762945,-0.408,0.0951,3.3
CD99P1,SID160733349,-0.826,-2.84,3.61
CD99P1,SID160767344,0.164,4.12,5.31
CD99P1,SID160767345,0.185,4.27,5.21
ZNF740,SID160762868,-1.04,-4.37,4.01
ZNF740,SID160762869,-1.05,-4.4,2.68
ZNF740,SID160762870,-0.0511,2.61,5.98
LINC00312,SID160739328,-0.364,0.41,4.01
LINC00312,SID160739329,1.88,16.2,10.7
LINC00312,SID160739330,0.264,4.83,4.77
H2BC11,SID160721204,0.508,6.54,8.03
H2BC11,SID160724203,-0.223,1.4,4.45
H2BC11,SID160735155,-0.781,-2.53,2.45
PROSER1,SID160750214,-0.0321,2.74,5.58
PROSER1,SID160750215,2.37,19.7,12.9
PROSER1,SID160750216,-0.224,1.39,2.76
HAVCR1,SID160738179,1.93,16.6,9.68
HAVCR1,SID160738180,0.559,6.9,6.25
HAVCR1,SID160738181,-0.992,-4.01,4.34
PSMD10,SID160715255,0.433,6.01,5.85
PSMD10,SID160715256,-0.408,0.1,4.89
PSMD10,SID160715257,0.603,7.21,5.72
MT1G,SID160723931,-0.651,-1.61,3.59
MT1G,SID160723932,-0.602,-1.27,2.9
MT1G,SID160777507,-0.291,0.922,5.37
CNTFR,SID160745609,7.61 (active),56.5,25.1
CNTFR,SID160745620,-1.35,-6.52,2.61
CNTFR,SID160745630,-1.02,-4.18,2.66
SPOUT1,SID160740873,-0.708,-2.01,2.88
SPOUT1,SID160740874,-0.72,-2.1,3.39
SPOUT1,SID160740875,-0.941,-3.65,1.98
PEG10,SID160735419,-0.208,1.5,5.57
PEG10,SID160735420,-1.05,-4.44,2.3
PEG10,SID160735421,0.301,5.09,5.08
VKORC1,SID160724532,4.15,32.1,15.7
VKORC1,SID160748454,-1.39,-6.83,2.82
VKORC1,SID160748455,-1.4,-6.88,1.72
GPHN,SID160727562,-0.566,-1.01,4.87
GPHN,SID160727566,1.09,10.6,8.38
GPHN,SID160727574,-0.825,-2.84,2.37
OTUD5,SID160733613,0.147,4,4.41
OTUD5,SID160743855,-0.846,-2.99,3.38
OTUD5,SID160743856,3.96,30.8,16.9
TIGD2,SID160730692,0.21,4.44,6.33
TIGD2,SID160760228,0.718,8.02,9.78
TIGD2,SID160760229,1.16,11.1,9.36
ARSK,SID160759357,1.42,12.9,10.1
ARSK,SID160759358,0.125,3.84,7.79
ARSK,SID160759359,0.00558,3.01,5.8
ADAM29,SID160729917,-1.02,-4.2,4.1
ADAM29,SID160729919,-1.28,-6.05,2.77
ADAM29,SID160729920,-0.586,-1.16,3.48

Reprinted from the listing, 11 entries:
gene,PubChem SID,G2 robust z-score,"G2 cells, % of GMNN control",raw share of cells in G2 (%)
MMP3,SID160777335,-0.787,-2.57,4
MMP3,SID160777336,-0.0619,2.53,4.85
TRANK1,SID160723333,0.345,5.4,7.77
TRANK1,SID160723334,-0.09,2.33,4.92
TRANK1,SID160723335,-0.109,2.2,4.21
SSNA1,SID160724182,-0.669,-1.74,4.36
SSNA1,SID160724183,0.536,6.74,6.57
SSNA1,SID160735148,-1.03,-4.25,1.85
CHAMP1,SID160762943,6.14 (active),46.2,20.5
CHAMP1,SID160762944,-0.898,-3.35,1.75
CHAMP1,SID160762945,-0.408,0.0951,3.3
